US11458212B2, “Molecular imaging of cancer cells in vivo” (H. Lee Moffitt Cancer Center and Research Institute, Inc., priority 2011, dated 2022)
Where two headings read alike, the source gives them in different places. At least one compound was matched to its structure with a doubt left. Where a SMILES comes first, the peptide text is derived from it. The star is where a group is joined. X2 = CCCCCCCCCCCCCCCC(=O)OCC(C*)OC(=O)CCCCCCCCCCCCCCC; X1 = CC(=O)NCCCOCCOCCOCCCNC(=O)COCC(=O)*

Amino acid sequences for entries named in this document (tags omitted). Residues count along the entry.
UniProt O60603, 21-784: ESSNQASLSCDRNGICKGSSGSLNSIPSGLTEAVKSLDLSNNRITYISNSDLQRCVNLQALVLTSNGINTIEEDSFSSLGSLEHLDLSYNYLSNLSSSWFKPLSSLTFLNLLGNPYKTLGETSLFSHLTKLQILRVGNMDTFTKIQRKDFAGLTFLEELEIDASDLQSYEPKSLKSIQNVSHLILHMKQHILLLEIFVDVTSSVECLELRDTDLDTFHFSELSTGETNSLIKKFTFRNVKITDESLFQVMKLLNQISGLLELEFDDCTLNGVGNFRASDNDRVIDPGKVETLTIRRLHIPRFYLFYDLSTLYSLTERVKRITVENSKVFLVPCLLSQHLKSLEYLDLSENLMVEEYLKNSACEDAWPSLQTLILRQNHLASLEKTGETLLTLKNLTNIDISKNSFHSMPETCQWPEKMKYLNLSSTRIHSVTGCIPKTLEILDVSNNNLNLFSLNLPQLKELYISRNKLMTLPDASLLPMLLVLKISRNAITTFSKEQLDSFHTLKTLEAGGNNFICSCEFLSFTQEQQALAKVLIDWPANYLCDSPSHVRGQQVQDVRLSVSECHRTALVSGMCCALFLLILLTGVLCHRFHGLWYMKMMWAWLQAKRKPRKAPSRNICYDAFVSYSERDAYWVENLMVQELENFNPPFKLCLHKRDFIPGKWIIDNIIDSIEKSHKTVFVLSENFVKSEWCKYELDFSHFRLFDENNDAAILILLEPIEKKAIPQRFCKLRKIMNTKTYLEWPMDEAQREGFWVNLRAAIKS

Experiments:
TLR2 [1] = molecular target: T1, TLR2 (Homo sapiens, UniProt O60603); test: In vitro TLR2 functional bioassay (NF-κB luciferase, HEK293/hTLR2 cells); format: cell-based; design: host or cells: HEK293 stably transfected with pUNO-hTLR2, transiently transfected with the pNifty-Luc reporter
Excerpt: In Vitro TLR2 Functional Bioassay The in vitro TLR2 functional bioassay was developed and optimized for use in screening soluble compound libraries to identify both TLR2 agonists and antagonists. In this study, the TLR2 functional bioassay was used as a fast high throughput screening to identify TLR2 agonist ligands by measuring the inducing activity of NF-κB. HEK293/hTLR2 cells, highly overexpressing human TLR2, were used along with the parental HEK293, cells as a negative control. Cells were seeded at a density of 40,000 per well using a WellMate® Microplate dispenser (Thermo Fischer Scientific/Matrix) in black 96-well plates with opaque white wells (Perkin Elmer Wallac, Waltham, Mass.) and then incubated at 37° C. […] On day 4 after 24 hrs of peptide stimulation, luciferase induced activity by the induction of NF-κB was measured. […] The luminescence intensity was measured using the standard luminescence protocol on a Victor™ X4 plate-reader equipped with a plate stacker for readout of multiple plates at a time (PerkinElmer, Waltham, Mass.). […] Data were analyzed with GraphPad Prism software and curves were generated with the appropriate nonlinear fit regression analysis.
The in vitro TLR2 functional bioassay was developed and optimized for use in high-throughput screening of soluble compound libraries to identify both TLR2 agonists and antagonists. […] On day 4 after 24 h of peptide stimulation, luciferase induced activity by the induction of NF-κB was measured. […] The luminescence intensity was measured using the standard luminescence protocol on a Victor X4 Multilabel plate reader equipped with a plate stacker for readout of multiple plates at a time (PerkinElmer, Waltham, Mass.). […] Data were analyzed with GraphPad Prism software and curves were generated with the appropriate nonlinear fit regression analysis.

TLR2 [2] = molecular target: T1, TLR2; test: In cyto europium TRF competition binding assay; design: ATCC (SU.86.86 CRL-1837, Capan-I HTB-79); SU.86.86 and Capan-I express TLR2 endogenously
[3] = log(agonist) vs. normalized response, doses 0.01 ng/mL to 1 μg/mL, read-out: EC50
[4] = competitive binding assay, cell line not stated

Row | Compound | EC50 (TLR2 [1]; [3]) [nM] | EC50 (TLR2 [1]; dose-response 0.001 ng/mL to 10 μg/mL, read-out: TLR2 Agonist Activity EC50) [nM] | Ki (TLR2 [2]; HEK-293/hTLR2 cells, 90 nM compound 11) [nM] | Ki (TLR2 [2]; SU.86.86 cells, 90 nM compound 11) [nM] | Ki (TLR2 [2]; [4]) [nM] | Ki (TLR2 [2]; competitive binding assay, cell line not stated, listed as T-02) [nM]
1 | CCCCCCCCCCCCCCCC(=O)OCC(CSCC(NC(=O)COCC(=O)NCCCOCCOCCOCCCNC(C)=O)C(=O)NC(CO)C(=O)NC(CCCNC(=N)N)C(=O)NC(Cc1ccccc1)C(=O)NC(CC(=O)O)C(=O)NC(CCC(=O)O)C(=O)NC(CC(=O)O)C(=O)NC(CC(=O)O)C(=O)NC(CC(C)C)C(=O)NC(CCC(=O)O)C(N)=O)OC(=O)CCCCCCCCCCCCCCC (centres unmarked) [Compound 8] (X1-C(X2)SRFDEDDLE-NH2; configuration not given here) | 25 | – | – | – | – | –
2 | CCCCCCCCCCCCCCCC(=O)OC[C@H](CSC[C@H](NC(=O)COCC(=O)NCCCOCCOCCOCCCNC(C)=O)C(=O)NCC(=O)NC(CO)C(=O)NCCCOCCOCCOCCCNC(=O)COCC(N)=O)OC(=O)CCCCCCCCCCCCCCC (stereo partly drawn) [Compound 10, Ac-PEGO-Dhc(Pam)2-Gly-Ser-PEGO-NH2] | 20.1 | 20 | 25 | 91 | 24 | 25
3 | CCCCCCCCCCCCCCCC(=O)OC[C@H](CSC[C@H](NC(=O)COCC(=O)NCCCOCCOCCOCCCNC(=O)CCSC1CC(=O)N(CCNC(=O)CCCCCN2C(=CC=C3CCCC(C=CC4=[N+](CCCCS(=O)(=O)O)c5ccc(S(=O)(=O)[O-])cc5C4(C)C)=C3Oc3ccc(S(=O)(=O)O)cc3)C(C)(C)c3cc(S(=O)(=O)O)ccc32)C1=O)C(=O)NCC(=O)N[C@H](CO)C(=O)NCCCOCCOCCOCCCNC(=O)COCC(N)=O)OC(=O)CCCCCCCCCCCCCCC (stereo partly drawn) [Compound 13, IRDye800CW-Mpr-PEGO-Cys(S-[2,3-bis(palmitoyl)oxy-(R)-propyl])-Gly-DSer-PEGO-NH2] | – | – | – | – | 10 | –
